Source: PubChem BioAssay AID504467 (National Center for Advancing Translational Sciences (NCATS), 2011)
The campaign covered roughly 330,000 compounds. About 7,700 (2.3%) were called active. Inconclusive means that the source gave no clear call. Such entries were picked first, then a sample of the others. The call rests on the fitted dose curve; in most records, active means well fitted inhibition curve with a large enough effect; inconclusive means small, poorly fitted or top-dose-only effect, or effect the other way; inactive means flat fitted curve, though single readings scatter. A potency beside an inconclusive call is a rough fit, not a confirmed value.
Potency means the concentration at half of the fitted maximal effect.

Assay: qHTS screen for small molecules that inhibit ELG1-dependent DNA repair in human embryonic kidney (HEK293T) cells expressing luciferase-tagged ELG1; further: nearly all actives have a fitted effect of over 55% in size
Conditions: HEK293T ELG1-luciferase reporter, luminescence, 16 h, DNA damage induced by 5-fluorouridine; series mostly up to 46.1 µM
Procedure, shortened: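 Luminescence from the luciferase reporter, measured 30 min after ONE-Glo reagent at room temperature, was the read-out. Beforehand, 2,000 cells per well were exposed for 16 hr at 37 °C to 5-fluorouridine together with compound or vehicle.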
For `Cc1ccc(Nc2nc(-c3ccc(O)cc3O)cs2)nc1`, the Potency was inconclusive: 2.59 µM [activator, partial curve]. In the case of `COc1ccc(OC)c(NC(=O)c2cccc(N3C(=O)C4C5C=CC(C6CC56)C4C3=O)c2)c1` (stereo unspecified), the Potency is reported as inconclusive: 20.6 µM [inhibitor, partial curve]. With `O=C(COC(=O)c1cc2c(s1)CCC2)Nc1ccc(F)cc1` the Potency was “inactive”. For `COc1ccccc1NC(=O)CN(Cc1ccccc1)S(C)(=O)=O`, the Potency was “inactive”. With `N#CC1=C(N)SC(N)=C(C#N)C1c1ccc(C(F)(F)F)cc1` the Potency was “inactive”. With `O=C(COc1ccc2ccccc2c1Br)N1CCCCC1` the Potency was inconclusive: 23.1 µM [activator, partial curve]. In the case of `Cc1ccccc1-c1nc(C(=O)NCC2CCCO2)cc2c1[nH]c1ccccc12` (stereo unspecified), the Potency is reported as inconclusive: 25.9 µM [inhibitor, single point]. With `CC(NC(=O)Nc1ccc(F)cc1)C(c1cccs1)N1CCCC1` (stereo unspecified) the Potency was “inactive”. In the case of `COc1ccc(C(O)c2nccc3cc(OC)c(OC)cc23)cc1OC` (stereo unspecified), the Potency is reported as inconclusive: 5.8 µM [inhibitor, partial curve]. In the case of `CC(C)(C)c1cc(C(=O)NCc2cc(F)cc3c2OCOC3)n(Cc2ccccc2)n1`, the Potency is reported as inconclusive: 29.1 µM [inhibitor, partial curve, poor fit]. With `CCN1CC(CN(C)Cc2cn(-c3ccc(C)cc3)nc2-c2ccc(F)cc2)CC1=O` (stereo unspecified) the Potency was “inactive”. With `O=C(COc1ccccc1C(=O)NCC1CCCO1)Nc1ccc(Br)cc1` (stereo unspecified) the Potency was inconclusive: 20.6 µM [inhibitor, single point]. For `O=C(NCCSCc1ccccc1)c1ccc(Cl)c(S(=O)(=O)N2CCOCC2)c1`, the Potency was inconclusive: 29.1 µM [inhibitor, single point]. In the case of `CC1CCCCN1Cc1nc2c(c(=O)n(C)c(=O)n2C)n1Cc1c(F)cccc1Cl` (stereo unspecified), the Potency is reported as “inactive”. In the case of `Cc1cccc(-n2c(-c3ccoc3C)n[nH]c2=S)c1`, the Potency is reported as “inactive”. In the case of `O=c1[nH]c2cccc(F)c2n2cccc12`, the Potency is reported as inconclusive: 18.3 µM [activator, single point]. In the case of `CCOC(=O)C1=C(C)N(C[C@@H]2CC[C@@H](Cc3ccc(-c4ccccc4)cc3)O2)C(=O)NC1c1ccc(-c2ccccc2)cc1` (stereo partly specified), the Potency is reported as “inactive”. For `CCNc1nc(NC(C)CC)nc(Oc2ccc(=O)[nH]n2)n1` (stereo unspecified), the Potency was inconclusive: 16.4 µM [activator, partial curve, poor fit]. In the case of `S=C(c1cccs1)N1CCCC1`, the Potency is reported as “inactive”. In the case of `CC(C(=O)Nc1cc([N+](=O)[O-])ccc1Cl)N1CCN(c2ccccc2O)CC1` (stereo unspecified), the Potency is reported as inconclusive: 18.4 µM [inhibitor, single point]. In the case of `COc1cc(N)c(Cc2nccc3cc(OC)c(OC)cc23)cc1OC`, the Potency is reported as inconclusive: 7.3 µM [inhibitor, partial curve]. In the case of `N/C(=N\OC(=O)Cc1cccs1)c1ccc(Cl)cc1`, the Potency is reported as inconclusive: 20.6 µM [activator, partial curve]. In the case of `CCC(C)c1ccc(NC(=O)C2CCN(c3ccc(C(F)(F)F)cn3)CC2)cc1` (stereo unspecified), the Potency is reported as inconclusive: 2.59 µM [inhibitor, partial curve]. In the case of `Cn1c(=NC(=O)C2CCN(S(=O)(=O)c3cccs3)CC2)sc2ccccc21`, the Potency is reported as inconclusive: 23.1 µM [inhibitor, single point]. For `CC(C)(C)NC(=S)NCc1ccco1`, the Potency was inconclusive: 0.0164 µM [inhibitor, full curve, poor fit]. In the case of `COc1ccccc1NC(=S)NCc1ccccc1Cl`, the Potency is reported as “inactive”. For `O=[N+]([O-])c1ccc(COc2ccccc2/C=N/O)cc1`, the Potency was inconclusive: 14.6 µM [activator, partial curve]. With `O=C(COc1cccc2ccccc12)N1CCN(c2ccccn2)CC1` the Potency was inconclusive: 9.2 µM [inhibitor, partial curve, poor fit]. For `O=S(=O)(c1ccc(F)c(F)c1)N1CCC2(CC1)OCCO2`, the Potency was “inactive”. For `CCC(Oc1ccccc1)C(=O)Nc1ccc(S(=O)(=O)Nc2ncccn2)cc1` (stereo unspecified), the Potency was inconclusive: 18.3 µM [activator, partial curve, poor fit]. With `O=C(O)/C(=C\c1c(C(=O)O)[nH]c2cc(Cl)cc(Cl)c12)c1ccccc1` the Potency was “inactive”. With `COc1ccc(C2=NCC(CSc3nccc(=O)[nH]3)S2)cc1` (stereo unspecified) the Potency was inconclusive: 1.41 µM [activator, single point]. With `COC(=O)C1=C(C)N(CCc2ccccc2)C(=O)/C1=C\c1ccco1` the Potency was inconclusive: 9.2 µM [inhibitor, single point]. With `COc1ccc(/C(C)=N/Nc2nc3ccccc3nc2C)cc1OC` the Potency was inconclusive: 29.1 µM [inhibitor, single point]. For `CC[N+]1=C(C)C(C)(C)c2cc(C)ccc21`, the Potency was active: 13 µM. In the case of `Nc1c(N=Nc2cccc(Cl)c2)c(=O)[nH]n1-c1ccccc1`, the Potency is reported as inconclusive: 16.4 µM [activator, single point]. With `CCN(CC)S(=O)(=O)c1cc(NC(=O)Cc2n[nH]c(=O)c3ccccc23)ccc1C` the Potency was active: 20.6 µM. In the case of `CCOC(=O)c1sc(NC(=O)CN2C(=O)NC3(CCCCCCC3)C2=O)c(C(=O)OCC)c1C`, the Potency is reported as inconclusive: 20.6 µM [inhibitor, single point]. For `CC1CC(=O)NN=C1c1ccc(N)c([N+](=O)[O-])c1` (stereo unspecified), the Potency was inconclusive: 20.6 µM [activator, partial curve, poor fit]. With `O=C(Nc1ccc(Br)cc1)Nc1ccccc1Cl` the Potency was inconclusive: 2.91 µM [activator, full curve]. For `CCOc1cccc(-c2nnc(SCC(=O)Nc3ccc(OC)c(OC)c3)n2N)c1`, the Potency was “inactive”. In the case of `COc1cc2ccccc2cc1C(=O)Nc1ccc(Cl)cn1`, the Potency is reported as inconclusive: 14.1 µM [activator, single point]. For `O=C(O)CCCCCn1c(O)c(C=C2N=c3ccccc3=N2)sc1=S`, the Potency was inconclusive: 29.1 µM [activator, single point]. In the case of `COc1ccc(C2CN=NC23CCCc2ccccc2C3=O)cc1` (stereo unspecified), the Potency is reported as inconclusive: 25.9 µM [inhibitor, single point]. With `COc1cc(Br)c(C(=O)c2nccc3cc(OC)c(OC)cc23)cc1OC` the Potency was “inactive”. For `CCOc1ccc(/C=N/NC(=O)Cc2ccccc2)cc1CN1CC2CC(C1)c1cccc(=O)n1C2` (stereo unspecified), the Potency was inconclusive: 20.6 µM [inhibitor, single point].
